From publication PMC6805484 come the findings set out here.

For at least one entry, the source does not settle the construct or the ends of the probe. Weaker means in comparison with the reference protein, sequence or condition of that experiment.

The test system of the data set is His-MKRN1 wt + His-PABPC1. Nature of the data set: pull-down. Conditions: PABPC1 does not increase MKRN1 recovery on control RNA; Binding: 50 mM Tris-HCl pH 7.4, 500 mM KCl, 12.5 mM MgCl2, 1% Triton X-100, 1 h, 4 °C; wash: 200 mM NaCl, 10 mM MgCl2, 50 mM HEPES pH 7.4, 0.5% Igepal CA630; recombinant protein; protein details: N-His6,N-His6; label: 3' biotin.

For the sequence “GGAAAUAAACUGUAGAGUUCCACGGAGCGACCCACCGAGCGC [Control RNA (SRSF4 3' UTR end + V20)]”, the binding result was “binds more weakly”.
